Publication PMC7719709

Protein sequences, listed by entry. Tags and fused reporters are not part of them.
UniProt P09874: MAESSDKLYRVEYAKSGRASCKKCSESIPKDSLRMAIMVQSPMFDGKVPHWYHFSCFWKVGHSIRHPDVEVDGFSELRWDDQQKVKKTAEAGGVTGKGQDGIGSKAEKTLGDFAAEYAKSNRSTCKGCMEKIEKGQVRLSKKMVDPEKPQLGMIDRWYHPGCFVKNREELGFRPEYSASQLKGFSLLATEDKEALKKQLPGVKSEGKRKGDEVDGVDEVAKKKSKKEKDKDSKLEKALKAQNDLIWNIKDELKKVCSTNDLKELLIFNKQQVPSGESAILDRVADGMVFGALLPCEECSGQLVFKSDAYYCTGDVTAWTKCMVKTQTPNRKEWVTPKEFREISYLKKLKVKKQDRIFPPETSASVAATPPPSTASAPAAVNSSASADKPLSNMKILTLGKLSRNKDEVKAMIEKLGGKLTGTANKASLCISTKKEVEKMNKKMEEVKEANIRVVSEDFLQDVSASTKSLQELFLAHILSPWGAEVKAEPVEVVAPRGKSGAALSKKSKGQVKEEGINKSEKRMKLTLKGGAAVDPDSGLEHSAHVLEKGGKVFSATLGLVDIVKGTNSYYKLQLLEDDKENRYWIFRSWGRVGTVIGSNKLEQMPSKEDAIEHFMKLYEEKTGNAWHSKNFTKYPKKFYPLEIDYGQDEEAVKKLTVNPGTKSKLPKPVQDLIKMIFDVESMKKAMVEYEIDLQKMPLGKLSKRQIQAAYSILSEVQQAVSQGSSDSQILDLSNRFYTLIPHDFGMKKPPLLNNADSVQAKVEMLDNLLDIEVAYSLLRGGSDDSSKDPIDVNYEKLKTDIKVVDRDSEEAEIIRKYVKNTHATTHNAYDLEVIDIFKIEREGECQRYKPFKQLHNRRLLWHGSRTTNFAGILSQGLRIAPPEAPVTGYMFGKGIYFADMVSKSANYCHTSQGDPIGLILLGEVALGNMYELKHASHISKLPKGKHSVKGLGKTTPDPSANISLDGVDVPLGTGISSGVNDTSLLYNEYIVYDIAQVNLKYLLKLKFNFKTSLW

Molecular target: T1, FLAG-tagged HLTF (human) (UniProt Q14527)
T1 sequence: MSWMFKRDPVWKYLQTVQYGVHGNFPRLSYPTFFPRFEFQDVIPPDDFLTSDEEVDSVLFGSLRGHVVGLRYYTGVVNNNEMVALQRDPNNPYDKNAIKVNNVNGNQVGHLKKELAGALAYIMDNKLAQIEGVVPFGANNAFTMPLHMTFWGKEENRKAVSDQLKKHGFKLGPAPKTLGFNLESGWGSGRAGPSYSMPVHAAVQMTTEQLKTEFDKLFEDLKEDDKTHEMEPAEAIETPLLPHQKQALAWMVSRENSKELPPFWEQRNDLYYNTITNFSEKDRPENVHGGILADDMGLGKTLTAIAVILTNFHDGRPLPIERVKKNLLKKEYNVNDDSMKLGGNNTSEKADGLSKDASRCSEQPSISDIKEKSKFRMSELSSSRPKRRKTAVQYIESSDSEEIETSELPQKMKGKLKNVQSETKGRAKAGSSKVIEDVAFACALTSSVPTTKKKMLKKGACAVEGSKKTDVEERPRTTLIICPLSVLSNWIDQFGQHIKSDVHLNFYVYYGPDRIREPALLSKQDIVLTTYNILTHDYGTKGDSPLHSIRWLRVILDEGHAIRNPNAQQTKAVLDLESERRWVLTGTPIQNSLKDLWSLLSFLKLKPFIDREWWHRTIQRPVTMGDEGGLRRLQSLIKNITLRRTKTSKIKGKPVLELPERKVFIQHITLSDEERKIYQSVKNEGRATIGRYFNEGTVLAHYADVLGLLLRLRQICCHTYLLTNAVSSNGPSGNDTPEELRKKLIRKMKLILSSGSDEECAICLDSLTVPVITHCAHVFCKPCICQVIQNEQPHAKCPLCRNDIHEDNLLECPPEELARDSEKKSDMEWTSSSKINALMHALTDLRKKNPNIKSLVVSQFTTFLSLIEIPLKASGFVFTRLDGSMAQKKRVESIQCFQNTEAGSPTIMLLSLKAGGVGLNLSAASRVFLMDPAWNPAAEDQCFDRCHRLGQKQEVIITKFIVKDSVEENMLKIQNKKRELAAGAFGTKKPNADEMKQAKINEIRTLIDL
Test: affinity purification with mass spectrometry; HLTF complex purified from FLAG–HLTF-expressing HEK293 cells; associated proteins subjected to mass spectrometry

## PARP1 (endogenous) (from UniProt P09874 1-1014)
  binding: binds

These are yes or no findings as the source states them, for the method shown. Binding seen in cells or lysates may run through a third protein. These calls come from enrichment with a bait or labelling near it, and not all partners need be listed. Sequences can lack the tags named with a protein.
